Experimental findings from PubChem BioAssay AID246 (DTP/NCI, 2004) are described below.

This assay deals with BDF1 mice, P1081 chloroleukemia ip, survival T/C. In words: NCI In Vivo Anticancer Drug Screen. Data for tumor model P1081 Chloroleukemia (intraperitoneal) in B6D2F1 (BDF1) mice. The note with it: T/C endpoint: mean survival time, higher T/C = longer survival. The method, then: The antitumor activity of compounds was measured in mice bearing transplantable tumors. Survival or tumor size were measured and the results are expressed as the measurement made in the treated group (T) divided by the measurement made in the vehicle treated control group (C). The tumor model used in this assay is P1081 Chloroleukemia (intraperitoneal) in B6D2F1 (BDF1) mice

[1] abbreviates: dose: 16.0 mg/kg/injection, schedule: Q01DX010 (ip), vehicle: saline.
Where [2] appears, read: dose: 54.0 mg/kg/injection, schedule: Q01DX010 (ip), vehicle: saline.
[3] abbreviates: dose: 2.0 mg/kg/injection, schedule: Q01DX010 (ip), vehicle: saline.
[4] abbreviates: dose: 12.5 mg/kg/injection, schedule: Q01DX Z (ip), vehicle: carboxymethylcellulose (CMC).

The list shows only some results of the screen, not a fair sample: it gathers tests that were run many times, whatever their T/C, doses with no T/C, and many T/C values between a quarter and a half above the control. Other doses and runs of a compound stand elsewhere. T/C gives the treated animals as a percentage of the vehicle group. Some doses have a count of surviving animals in place of a T/C: the source files T/C as zero there, which appears to mark a toxic dose or a test without result, not a measured value. Some doses without a T/C left all or most animals alive at the check, yet need not have been tolerated: the source hardly ever lists a survival T/C far under the control, and the zero likely stands for such cases as well. Counts of survivors are from the toxicity check (mostly the fifth day) where no day follows; animals may have died later. Schedules are NCI's codes, taken here to give the interval after Q, in days (D) or hours (H), and the number of doses after X. Some schedule codes hold Z or #, which are not explained here. For survival time, the PubChem record calls one and a half times the control and up active, and a quarter to a half above the control has no call in these data; cut-offs in other NCI protocols can differ. Some doses were run more than once; the values are given in rising order. Some T/C values are followed by the survivors on the day toxicity was checked, most often the fifth; without a count, all were alive then.

Consider `CN(C)c1ccc(Nc2c3ccccc3nc3ccccc23)cc1`, for which the T/C reads like this: under setting [1], 125 % of control; (dose: 24.0 mg/kg/injection, schedule: Q01DX010 (ip), vehicle: saline) 130 % of control; (dose: 36.0 mg/kg/injection, schedule: Q01DX010 (ip), vehicle: saline) 130 % of control; under setting [2], 135 % of control. For the same molecule, the survivor count was 6 of 6 under setting [2]; 6 of 6 (dose: 80.0 mg/kg/injection, schedule: Q01DX010 (ip), vehicle: saline); 5 of 6 (dose: 120.0 mg/kg/injection, schedule: Q01DX010 (ip), vehicle: saline); 6 of 6 (dose: 200.0 mg/kg/injection, schedule: Q01DX Z (ip), vehicle: carboxymethylcellulose (CMC)).
For the molecule `COC12C(COC(N)=O)C3=C(C(=O)C(C)=C(N)C3=O)N1CC1C2N1C` (stereo not given), the T/C runs as follows: (dose: 2.5 mg/kg/injection, schedule: Q01DX Z (ip), vehicle: carboxymethylcellulose (CMC)) 132 % of control; (dose: 5.0 mg/kg/injection, schedule: Q01DX Z (ip), vehicle: carboxymethylcellulose (CMC)) 147 % of control; (dose: 10.0 mg/kg/injection, schedule: Q01DX Z (ip), vehicle: carboxymethylcellulose (CMC)) 144 % of control. For the same molecule, the survivor count (dose: 20.0 mg/kg/injection, schedule: Q01DX Z (ip), vehicle: carboxymethylcellulose (CMC)) was 6 of 6.
Turning to `CS(=O)(=O)OCC(O)C(O)COS(C)(=O)=O` (stereo not given), the T/C reads like this: (dose: 750.0 mg/kg/injection, schedule: Q01DX Z (ip), vehicle: saline) 140 % of control; (dose: 1500.0 mg/kg/injection, schedule: Q01DX Z (ip), vehicle: saline) 127 % of control.
Regarding `N[C@@H](Cc1ccc(N(CCCl)CCCl)cc1)C(=O)O`, the T/C (dose: 0.16 mg/kg/injection, schedule: Q01DX Z (ip), vehicle: saline) is 138 % of control. Besides, the survivor count reads like this: (dose: 20.0 mg/kg/injection, schedule: Q01DX Z (ip), vehicle: saline) 6 of 6; (dose: 40.0 mg/kg/injection, schedule: Q01DX Z (ip), vehicle: saline) 6 of 6.
For the molecule `CS(=O)(=O)OCCN(CCOS(C)(=O)=O)c1ccc(N=O)cc1`, the survivor count reads like this: under setting [3], 6 of 6; (dose: 4.0 mg/kg/injection, schedule: Q01DX010 (ip), vehicle: saline) 6 of 6; (dose: 8.0 mg/kg/injection, schedule: Q01DX010 (ip), vehicle: saline) 6 of 6; under setting [1], 1 of 6.
`Clc1ncnc2nc[nH]c12`: the survivor count (dose: 500.0 mg/kg/injection, schedule: Q01DX Z (ip), vehicle: carboxymethylcellulose (CMC)) was 0 of 6.
`O=c1cnn(C2OC(CO)C(O)C2O)c(=O)[nH]1` (stereo not given): the survivor count (dose: 31.0 mg/kg/injection, schedule: Q01DX Z (ip), vehicle: water) is given as 6 of 6. The T/C by setting is: (dose: 200.0 mg/kg/injection, schedule: Q01DX010 (ip), vehicle: saline) 145 % of control; (dose: 400.0 mg/kg/injection, schedule: Q01DX010 (ip), vehicle: saline) 140 % of control; (dose: 800.0 mg/kg/injection, schedule: Q01DX010 (ip), vehicle: saline) 135 % of control [5 of 6 alive].
For `S=P(N1CCOCC1)(N1CC1)N1CC1`, the survivor count reads like this: under setting [4], 3 of 6; (dose: 25.0 mg/kg/injection, schedule: Q01DX Z (ip), vehicle: carboxymethylcellulose (CMC)) 5 of 6; (dose: 50.0 mg/kg/injection, schedule: Q01DX Z (ip), vehicle: carboxymethylcellulose (CMC)) 0 of 6.
In the case of `CC(=O)NC1=C(N2CC2)C(=O)C(NC(C)=O)=C(N2CC2)C1=O`, the T/C is 127 and 135 % of control (dose: 125.0 micrograms/kg/injection, schedule: Q01DX010 (ip), vehicle: saline); 138 % of control (dose: 1000.0 micrograms/kg/injection, schedule: Q01DX010 (ip), vehicle: saline).
As for `O=C(Nc1ccc(C2=NCCN2)cc1)c1ccc(C(=O)Nc2ccc(C3=NCCN3)cc2)c(Cl)c1`, the survivor count is 5 of 6 (dose: 3.75 mg/kg/injection, schedule: Q01DX Z (ip), vehicle: water) and 4 of 6 (dose: 60.0 mg/kg/injection, schedule: Q01DX Z (ip), vehicle: water). Also, where the note is “dose: 15.0 mg/kg/injection, schedule: Q01DX Z (ip), vehicle: water”, the T/C is 132 % of control.
As to `CSCS(=O)C[C@H](CO)NC(=O)/C=C/c1c(C)[nH]c(=O)[nH]c1=O` (stereo not given in full), the survivor count (dose: 2.0 mg/kg/injection, schedule: Q01DX Z (ip), vehicle: saline) is given as 2 of 6.
Turning to `c1ccc(CNc2ncnc3[nH]ncc23)cc1`, the survivor count (dose: 7.8 mg/kg/injection, schedule: Q01DX Z (ip), vehicle: carboxymethylcellulose (CMC)) is recorded as 6 of 6; the survivor count (dose: 15.6 mg/kg/injection, schedule: Q01DX Z (ip), vehicle: carboxymethylcellulose (CMC)) is listed as 6 of 6; the survivor count (dose: 31.2 mg/kg/injection, schedule: Q01DX Z (ip), vehicle: carboxymethylcellulose (CMC)) is listed as 5 of 6; the survivor count (dose: 62.5 mg/kg/injection, schedule: Q01DX Z (ip), vehicle: carboxymethylcellulose (CMC)) was 0 of 6.
Regarding `O=C(Nc1ccc(NC2=NCCN2)cc1)c1ccc(C(=O)Nc2ccc(NC3=NCCN3)cc2)cc1`, the T/C by setting is: under setting [3], 130 % of control; (dose: 4.0 mg/kg/injection, schedule: Q01DX Z (ip), vehicle: saline) 132 % of control; under setting [1], 140 and 144 % of control. Further, the survivor count is 6 of 6 (dose: 16.0 mg/kg/injection, schedule: Q01DX Z (ip), vehicle: saline); 6 of 6 (dose: 32.0 mg/kg/injection, schedule: Q01DX Z (ip), vehicle: saline); 6 of 6 (dose: 64.0 mg/kg/injection, schedule: Q01DX Z (ip), vehicle: saline).
Regarding `Clc1ccc(C(c2ccccc2Cl)C(Cl)Cl)cc1` (stereo not given), the T/C by setting is: (dose: 0.4 mg/kg/injection, schedule: Q01DX Z (sc), vehicle: steroid suspending solution) 130 % of control; (dose: 1.6 mg/kg/injection, schedule: Q01DX Z (sc), vehicle: steroid suspending solution) 132 and 139 % of control; (dose: 3.1 mg/kg/injection, schedule: Q01DX Z (sc), vehicle: steroid suspending solution) 125 % of control; (dose: 6.25 mg/kg/injection, schedule: Q01DX Z (sc), vehicle: steroid suspending solution) 128 and 137 % of control. Further, the survivor count (dose: 200.0 mg/kg/injection, schedule: Q01DX Z (sc), vehicle: steroid suspending solution) was 6 of 6.
Consider `Cn1cnc([N+](=O)[O-])c1Sc1ncnc2nc[nH]c12`, for which the T/C under setting [4] is 146 % of control.
As for `CC[C@@H](c1ccc(O)cc1)[C@@H](CC)c1ccc(O)cc1`, the survivor count (dose: 1000.0 mg/kg/injection, schedule: Q01DX Z (sc), vehicle: steroid suspending solution) is given as 6 of 6.
`Cn1cnc([N+](=O)[O-])c1Sc1nc(N)nc2nc[nH]c12`: under “dose: 4.0 mg/kg/injection, schedule: Q01DX Z (ip), vehicle: carboxymethylcellulose (CMC)”, the T/C was 140 and 142 % of control. The survivor count is given as 6 of 6 (dose: 16.0 mg/kg/injection, schedule: Q01DX Z (ip), vehicle: carboxymethylcellulose (CMC)) and 6 of 6 (dose: 32.0 mg/kg/injection, schedule: Q01DX Z (ip), vehicle: carboxymethylcellulose (CMC)).
